Experimental data: the supplement of paper PMC10849652
The other results are listed elsewhere or left out.

Chains of the proteins cited; added tags and fusions are not shown. Lines headed by an entry give the natural chain unless they say otherwise; changes in a name come on top.
UniProt P00505: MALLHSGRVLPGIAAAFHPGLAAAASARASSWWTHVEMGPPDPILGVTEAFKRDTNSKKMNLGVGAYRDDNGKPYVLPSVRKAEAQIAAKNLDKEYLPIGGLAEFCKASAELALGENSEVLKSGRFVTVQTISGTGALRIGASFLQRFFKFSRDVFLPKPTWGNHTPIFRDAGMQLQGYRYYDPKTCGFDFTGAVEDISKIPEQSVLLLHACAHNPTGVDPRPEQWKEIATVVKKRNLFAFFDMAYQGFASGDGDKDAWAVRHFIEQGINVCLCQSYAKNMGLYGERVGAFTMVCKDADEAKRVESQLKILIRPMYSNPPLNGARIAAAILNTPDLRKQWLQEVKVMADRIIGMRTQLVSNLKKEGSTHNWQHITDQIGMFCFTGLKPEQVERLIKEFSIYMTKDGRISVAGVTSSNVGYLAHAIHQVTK
UniProt Q6Y7W6: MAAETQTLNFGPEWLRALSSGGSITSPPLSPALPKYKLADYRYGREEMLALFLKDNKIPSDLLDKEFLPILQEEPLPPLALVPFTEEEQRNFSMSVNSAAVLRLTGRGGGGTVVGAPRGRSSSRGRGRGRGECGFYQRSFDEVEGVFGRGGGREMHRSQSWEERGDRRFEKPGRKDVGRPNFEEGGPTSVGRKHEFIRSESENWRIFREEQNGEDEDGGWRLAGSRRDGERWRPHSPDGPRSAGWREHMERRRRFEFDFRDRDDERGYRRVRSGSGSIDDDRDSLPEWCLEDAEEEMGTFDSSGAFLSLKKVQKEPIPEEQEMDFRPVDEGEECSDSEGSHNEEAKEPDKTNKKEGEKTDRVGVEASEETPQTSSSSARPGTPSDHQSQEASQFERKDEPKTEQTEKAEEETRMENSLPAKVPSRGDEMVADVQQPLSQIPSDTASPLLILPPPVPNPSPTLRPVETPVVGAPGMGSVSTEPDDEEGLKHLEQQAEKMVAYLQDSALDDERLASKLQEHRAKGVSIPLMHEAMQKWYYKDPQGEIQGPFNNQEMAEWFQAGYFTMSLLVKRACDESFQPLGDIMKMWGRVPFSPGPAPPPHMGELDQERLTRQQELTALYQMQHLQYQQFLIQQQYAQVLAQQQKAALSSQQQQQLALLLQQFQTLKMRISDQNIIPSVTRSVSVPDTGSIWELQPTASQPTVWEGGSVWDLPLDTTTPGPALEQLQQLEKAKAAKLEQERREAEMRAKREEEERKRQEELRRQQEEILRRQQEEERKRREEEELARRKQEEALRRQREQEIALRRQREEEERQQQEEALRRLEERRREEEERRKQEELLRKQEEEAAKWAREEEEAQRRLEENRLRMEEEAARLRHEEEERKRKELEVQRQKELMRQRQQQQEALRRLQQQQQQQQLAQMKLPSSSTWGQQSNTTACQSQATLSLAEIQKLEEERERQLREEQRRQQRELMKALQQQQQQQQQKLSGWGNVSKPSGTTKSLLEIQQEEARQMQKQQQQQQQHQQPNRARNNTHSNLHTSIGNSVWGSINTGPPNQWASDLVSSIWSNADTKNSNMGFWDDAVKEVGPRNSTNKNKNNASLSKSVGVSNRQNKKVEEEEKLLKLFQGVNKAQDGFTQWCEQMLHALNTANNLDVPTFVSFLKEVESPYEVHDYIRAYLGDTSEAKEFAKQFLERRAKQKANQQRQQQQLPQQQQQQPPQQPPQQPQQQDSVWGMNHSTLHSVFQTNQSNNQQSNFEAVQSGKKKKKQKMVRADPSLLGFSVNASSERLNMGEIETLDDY
UniProt P16278: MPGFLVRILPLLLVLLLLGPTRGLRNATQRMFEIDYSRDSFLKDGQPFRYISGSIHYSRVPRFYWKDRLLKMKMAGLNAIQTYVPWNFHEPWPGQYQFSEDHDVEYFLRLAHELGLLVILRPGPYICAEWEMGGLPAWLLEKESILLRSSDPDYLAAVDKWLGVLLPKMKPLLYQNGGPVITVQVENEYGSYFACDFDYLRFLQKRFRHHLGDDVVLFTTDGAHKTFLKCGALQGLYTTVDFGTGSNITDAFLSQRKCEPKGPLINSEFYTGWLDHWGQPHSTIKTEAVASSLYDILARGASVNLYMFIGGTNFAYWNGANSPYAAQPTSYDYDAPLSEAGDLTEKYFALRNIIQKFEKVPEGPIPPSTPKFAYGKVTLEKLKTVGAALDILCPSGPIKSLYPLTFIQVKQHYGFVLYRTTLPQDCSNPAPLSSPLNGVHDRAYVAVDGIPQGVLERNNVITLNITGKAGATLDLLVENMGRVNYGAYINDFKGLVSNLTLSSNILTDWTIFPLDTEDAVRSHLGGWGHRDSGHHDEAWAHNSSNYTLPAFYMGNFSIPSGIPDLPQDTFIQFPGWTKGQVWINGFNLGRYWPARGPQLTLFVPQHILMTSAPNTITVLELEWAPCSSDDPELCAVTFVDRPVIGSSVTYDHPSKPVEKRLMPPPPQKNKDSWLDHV
UniProt Q9BXV9: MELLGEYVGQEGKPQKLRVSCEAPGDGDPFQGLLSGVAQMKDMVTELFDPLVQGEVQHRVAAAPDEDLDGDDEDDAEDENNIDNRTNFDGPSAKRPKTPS
UniProt Q9UKJ3: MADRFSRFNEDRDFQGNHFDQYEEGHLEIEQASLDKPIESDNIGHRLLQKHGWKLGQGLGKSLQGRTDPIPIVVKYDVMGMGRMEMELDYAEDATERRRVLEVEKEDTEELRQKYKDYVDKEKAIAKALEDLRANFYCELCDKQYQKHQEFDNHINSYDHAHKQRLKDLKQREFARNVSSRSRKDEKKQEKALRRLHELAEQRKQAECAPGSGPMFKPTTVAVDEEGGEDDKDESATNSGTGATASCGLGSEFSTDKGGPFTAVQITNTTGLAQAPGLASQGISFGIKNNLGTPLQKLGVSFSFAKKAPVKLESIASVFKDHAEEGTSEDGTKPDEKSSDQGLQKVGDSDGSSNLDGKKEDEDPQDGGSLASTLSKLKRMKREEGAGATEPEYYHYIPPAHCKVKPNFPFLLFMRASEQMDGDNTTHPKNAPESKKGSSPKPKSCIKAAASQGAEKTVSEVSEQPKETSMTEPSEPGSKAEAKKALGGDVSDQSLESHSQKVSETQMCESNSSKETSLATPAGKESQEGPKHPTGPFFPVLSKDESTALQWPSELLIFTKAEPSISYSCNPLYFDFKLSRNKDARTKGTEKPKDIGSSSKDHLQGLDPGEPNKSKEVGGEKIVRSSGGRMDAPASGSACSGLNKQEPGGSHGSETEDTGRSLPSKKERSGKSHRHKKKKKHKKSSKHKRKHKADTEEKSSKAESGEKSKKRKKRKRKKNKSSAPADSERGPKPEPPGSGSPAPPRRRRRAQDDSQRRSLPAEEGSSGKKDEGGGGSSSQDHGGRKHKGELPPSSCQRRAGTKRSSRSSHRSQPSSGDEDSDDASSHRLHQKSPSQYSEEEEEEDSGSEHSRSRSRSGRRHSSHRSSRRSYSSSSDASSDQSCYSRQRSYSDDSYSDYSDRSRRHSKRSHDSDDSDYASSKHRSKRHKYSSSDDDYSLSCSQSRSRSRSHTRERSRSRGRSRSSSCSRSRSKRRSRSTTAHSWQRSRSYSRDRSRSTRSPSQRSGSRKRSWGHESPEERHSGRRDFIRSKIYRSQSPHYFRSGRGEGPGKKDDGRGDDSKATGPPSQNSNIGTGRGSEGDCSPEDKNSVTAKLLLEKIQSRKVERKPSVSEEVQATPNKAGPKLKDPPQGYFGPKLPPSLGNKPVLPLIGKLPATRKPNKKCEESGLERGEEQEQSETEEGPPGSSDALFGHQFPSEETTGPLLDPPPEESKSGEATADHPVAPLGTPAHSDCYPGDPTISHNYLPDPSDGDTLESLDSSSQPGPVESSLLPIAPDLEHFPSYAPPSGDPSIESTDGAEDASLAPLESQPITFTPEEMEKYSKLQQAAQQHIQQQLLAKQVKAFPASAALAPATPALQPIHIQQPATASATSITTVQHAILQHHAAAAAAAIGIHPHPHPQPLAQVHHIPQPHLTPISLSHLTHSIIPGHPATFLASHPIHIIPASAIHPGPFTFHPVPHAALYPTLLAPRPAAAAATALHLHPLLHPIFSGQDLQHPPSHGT
UniProt Q13227: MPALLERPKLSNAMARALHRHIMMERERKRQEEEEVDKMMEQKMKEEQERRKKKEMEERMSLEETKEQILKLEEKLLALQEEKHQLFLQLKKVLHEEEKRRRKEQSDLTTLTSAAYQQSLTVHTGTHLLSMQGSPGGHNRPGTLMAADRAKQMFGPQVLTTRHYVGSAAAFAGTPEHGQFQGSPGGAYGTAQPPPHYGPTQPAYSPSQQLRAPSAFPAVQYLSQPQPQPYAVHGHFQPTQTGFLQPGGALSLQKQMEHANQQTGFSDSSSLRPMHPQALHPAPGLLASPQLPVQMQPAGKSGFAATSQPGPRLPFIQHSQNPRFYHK
UniProt Q9NWU2, whole entry, looked up: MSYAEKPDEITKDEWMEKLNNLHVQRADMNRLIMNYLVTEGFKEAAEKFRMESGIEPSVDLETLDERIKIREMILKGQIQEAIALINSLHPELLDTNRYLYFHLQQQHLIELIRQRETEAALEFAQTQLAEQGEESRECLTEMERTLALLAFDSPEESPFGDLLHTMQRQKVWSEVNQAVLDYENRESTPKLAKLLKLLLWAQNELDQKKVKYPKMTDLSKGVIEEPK
UniProt Q9HC38: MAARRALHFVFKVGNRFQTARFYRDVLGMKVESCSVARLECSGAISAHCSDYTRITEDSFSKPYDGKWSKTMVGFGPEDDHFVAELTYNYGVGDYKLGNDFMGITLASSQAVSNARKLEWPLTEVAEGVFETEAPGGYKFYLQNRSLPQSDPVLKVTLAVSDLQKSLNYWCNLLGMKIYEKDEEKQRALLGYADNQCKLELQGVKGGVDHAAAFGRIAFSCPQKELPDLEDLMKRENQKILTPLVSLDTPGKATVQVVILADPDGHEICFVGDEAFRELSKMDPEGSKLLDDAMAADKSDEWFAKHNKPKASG
UniProt Q9H3C7, whole entry, looked up: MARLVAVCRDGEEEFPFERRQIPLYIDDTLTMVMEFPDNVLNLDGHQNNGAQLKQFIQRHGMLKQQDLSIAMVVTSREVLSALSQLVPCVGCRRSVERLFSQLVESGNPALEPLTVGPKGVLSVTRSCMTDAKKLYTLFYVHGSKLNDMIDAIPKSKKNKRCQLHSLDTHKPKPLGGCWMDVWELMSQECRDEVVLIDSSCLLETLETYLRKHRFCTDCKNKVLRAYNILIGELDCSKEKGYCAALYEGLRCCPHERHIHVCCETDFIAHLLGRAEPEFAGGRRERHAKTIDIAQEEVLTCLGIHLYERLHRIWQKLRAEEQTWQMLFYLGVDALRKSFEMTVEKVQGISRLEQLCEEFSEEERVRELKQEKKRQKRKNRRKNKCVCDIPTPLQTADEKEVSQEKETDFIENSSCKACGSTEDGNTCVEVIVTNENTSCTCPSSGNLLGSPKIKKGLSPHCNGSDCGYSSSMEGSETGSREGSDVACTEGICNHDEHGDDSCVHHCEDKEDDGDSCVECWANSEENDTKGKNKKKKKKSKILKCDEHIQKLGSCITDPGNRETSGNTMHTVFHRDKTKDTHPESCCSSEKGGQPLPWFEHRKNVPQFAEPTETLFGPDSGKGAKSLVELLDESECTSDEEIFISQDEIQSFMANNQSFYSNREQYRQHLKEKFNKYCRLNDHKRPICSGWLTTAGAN
UniProt P00367: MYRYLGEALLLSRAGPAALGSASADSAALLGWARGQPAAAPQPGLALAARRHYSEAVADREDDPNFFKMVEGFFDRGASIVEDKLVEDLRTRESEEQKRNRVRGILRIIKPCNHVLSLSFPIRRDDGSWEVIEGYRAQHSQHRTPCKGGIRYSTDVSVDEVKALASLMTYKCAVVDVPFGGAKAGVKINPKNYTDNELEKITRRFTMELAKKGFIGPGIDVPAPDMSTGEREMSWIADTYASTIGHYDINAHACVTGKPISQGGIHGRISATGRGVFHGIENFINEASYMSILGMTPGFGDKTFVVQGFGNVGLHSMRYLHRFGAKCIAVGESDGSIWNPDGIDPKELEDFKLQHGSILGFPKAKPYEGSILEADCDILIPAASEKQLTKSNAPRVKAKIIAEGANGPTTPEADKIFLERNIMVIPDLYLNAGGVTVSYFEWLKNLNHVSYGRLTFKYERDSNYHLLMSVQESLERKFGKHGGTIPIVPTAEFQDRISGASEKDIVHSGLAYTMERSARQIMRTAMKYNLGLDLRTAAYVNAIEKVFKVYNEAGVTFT
UniProt P17900: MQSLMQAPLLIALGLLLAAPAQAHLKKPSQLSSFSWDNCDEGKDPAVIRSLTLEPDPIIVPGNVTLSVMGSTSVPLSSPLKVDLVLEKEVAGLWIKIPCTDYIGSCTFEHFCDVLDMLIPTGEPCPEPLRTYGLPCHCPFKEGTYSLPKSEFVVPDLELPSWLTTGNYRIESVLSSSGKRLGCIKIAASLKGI

What was measured:
Test in all cases: log2 fold change, soluble protein after heating vs DMSO (PISA); higher = thermal stabilisation; K562 lysate, 10 uM; active = over 0.2 and 3.5 SD of the protein, either way, in both replicates (recomputed)
erlotinib = compound: C#Cc1cccc(Nc2ncnc3cc(OCCOC)c(OCCOC)cc23)c1 [erlotinib]
In short: (§1)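 Log-two fold change in thermal stability relative to solvent controls is reported from duplicates. For each sample, crude K562 extract from dounce-homogenised pellets in PBS pH 7.4 with 1 mM MgCl2, at 1 mg/mL protein, was treated with 10 μM compound for 30 min. Aliquots heated for 3 min across 48°C-58°C were pooled, brought to 0.5% NP-40 at 4°C and cleared at 21,000xg for 90 min. The supernatant was quantified by TMTpro 16plex LC-MS/MS with channel sums equalised.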

[1] = compound: C/C(=N\NC(=O)C1=CC(=CC=C1)S(=O)(=O)N2CCOCC2)/C3=C(C=CC(=C3)Cl)O
In short: as §1

[2] = compound: C1=CC(=CC=C1C2=NC3=C(N2)C=C(C=C3)C(=O)N)OC4=CC=C(C=C4)Cl
In short: as §1

[3] = compound: C1=CC2=C(C=CC(=C2)/C=C\3/C(=O)NC(=NCC4=CC=CS4)S3)N=C1
In short: as §1

[4] = compound: C1=CC2=NC=CN=C2C=C1/C=C/3\C(=O)NC(=O)S3
In short: as §1

[5] = compound: C1=CC=C(C=C1)C2=NC(=C(N2)C3=CC=NC=C3)C4=CC(=C(C=C4)Cl)O
In short: as §1

[6] = compound: C1=CC=C2C(=C1)C3=NNC4=CC=CC(=C43)C2=O
In short: as §1

[7] = compound: C1CCN(C1)C(=O)NC2=CC=CC(=C2)NC3=NC=C(C(=N3)NCCC4=CN=CN4)Br
In short: as §1

[8] = compound: C1CN(CCC1(CC2=CC=C(C=C2)Cl)N)C3=NC=NC4=C3C=CN4
In short: as §1

IRAK-1-4 Inhibitor I = compound: C1COCCN1CCN2C3=CC=CC=C3N=C2NC(=O)C4=CC(=CC=C4)[N+](=O)[O-] [IRAK-1-4 Inhibitor I]
In short: as §1

ibrutinib = compound: C=CC(=O)N1CCC[C@@H](n2nc(-c3ccc(Oc4ccccc4)cc3)c3c(N)ncnc32)C1 [ibrutinib]
In short: as §1

[9] = compound: CC(=O)c1cnc2ccc(-c3cc(Cl)c(O)c(Cl)c3)nc2c1N[C@H]1CC[C@H](CN(C)C)CC1
In short: as §1

ralimetinib = compound: CC(C)(C)Cn1c(N)nc2ccc(-c3[nH]c(C(C)(C)C)nc3-c3ccc(F)cc3)nc21 [ralimetinib]
In short: as §1

[10] = compound: CC(C)(O)CC(=O)NCCn1ccc2ncnc(Nc3ccc(Oc4cccc(C(F)(F)F)c4)c(Cl)c3)c21
In short: as §1

[11] = compound: CC(C)C1=C2N=C(C=C(N2N=C1)NCC3=CC=CC=C3)NCCCCCCN
In short: as §1

[12] = compound: CC1=C(C(CC(=O)N1)C2=CC=C(C=C2)C(F)(F)F)C(=O)NC3=C(C=C4C(=C3)C=NN4)F
In short: as §1

[13] = compound: CC1=C(C2=C(C=C1)C(=O)C3=CC=CC=C3N2CCCN)C
In short: as §1

[14] = compound: CC1=C(C=C(C=C1)NC(=O)C2=CC(=CC=C2)C(C)(C)C#N)NC3=CC4=C(C=C3)N=CN(C4=O)C
In short: as §1

[15] = compound: CC1=C(C=C(C=C1)NC(=O)C2=CC(=CC=C2)N(C)C)NC(=O)C3=CC=C(C=C3)O
In short: as §1

[16] = compound: CC1=CC=C(C=C1)SC2=C3C=C(SC3=CN=C2)C(=O)N
In short: as §1

Measured: log2 fold change

GOT2 (UniProt P00505)
inactive: erlotinib -0.003 | [1] 0.011 | [2] 0.029 | [3] 0.002 | [4] -0.004 | [5] -0.007 | [6] 0.009 | [7] 0.014 | [8] 0.002 | IRAK-1-4 Inhibitor I 0.003 | ibrutinib 0.021 | [9] -0.006 | ralimetinib 0.003 | [10] 0.003 | [11] -0.018 | [12] -0.019 | [13] -0.019 | [14] 0.007 | [15] -0.014 | [16] -0.017

GIGYF2 (UniProt Q6Y7W6)
inactive: erlotinib -0.011 | [1] -0.033 | [2] -0.024 | [3] -0.016 | [4] 0.018 | [5] 0.005 | [6] -0.005 | [7] 0.006 | [8] -0.005 | IRAK-1-4 Inhibitor I 0.002 | ibrutinib -0.01 | [9] 0.004 | ralimetinib 0.014 | [10] -0.016 | [11] 0.029 | [12] -0.015 | [13] 0.01 | [14] 0.007 | [15] -0.006 | [16] 0.023

GIGYF1 (UniProt O75420)
inactive: erlotinib 0.067 | [1] 0.08 | [2] 0.072 | [3] -0.002 | [4] -0.091 | [5] 0.017 | [6] 0.004 | [7] 0.012 | [8] 0.012 | IRAK-1-4 Inhibitor I -0.033 | ibrutinib -0.029 | [9] -0.09 | ralimetinib 0.003 | [10] -0.015 | [11] 0.043 | [12] 0.012 | [13] 0.062 | [14] 0.139 | [15] 0.01 | [16] -0.02

GLB1 (UniProt P16278)
inactive: erlotinib 0.004 | [1] -0.027 | [2] 0.004 | [3] 0.039 | [4] -0.011 | [5] 0.016 | [6] -0.086 | [7] -0.003 | [8] 0.031 | IRAK-1-4 Inhibitor I 0.016 | ibrutinib 0.002 | [9] -0.008 | ralimetinib -0.005 | [10] -0.03 | [11] 0.003 | [12] -0.009 | [13] -0.001 | [14] -0.011 | [15] 0.025 | [16] 0.015

GON7 (UniProt Q9BXV9)
inactive: erlotinib -0.004 | [1] 0.727 | [2] 0.077 | [3] 0.009 | [4] -0.062 | [5] -0.005 | [6] -0.095 | [7] 0.094 | [8] 0.072 | IRAK-1-4 Inhibitor I -0.041 | ibrutinib 0.073 | [9] -0.132 | ralimetinib -0.052 | [10] -0.052 | [11] -0.022 | [12] 0.008 | [13] 0.017 | [14] 0.071 | [15] 0.042 | [16] 0.062

GPATCH8 (UniProt Q9UKJ3)
inactive: erlotinib -0.028 | [1] -0.083 | [2] 0.098 | [3] 0.067 | [4] -0.05 | [5] -0.018 | [6] -0.067 | [7] -0.053 | [8] -0.033 | IRAK-1-4 Inhibitor I 0.012 | ibrutinib 0.041 | [9] -0.059 | ralimetinib 0.013 | [10] -0.013 | [11] 0.033 | [12] 0.023 | [13] -0.008 | [14] -0.186 | [15] 0.031 | [16] -0.02

GPS2 (UniProt Q13227)
inactive: erlotinib -0.003 | [1] 0.002 | [2] 0.105 | [3] 0.078 | [4] 0.096 | [5] -0.042 | [6] 0.019 | [7] 0.022 | [8] 0.038 | IRAK-1-4 Inhibitor I 0.022 | ibrutinib 0.005 | [9] 0.011 | ralimetinib 0.032 | [10] 0.044 | [11] -0.002 | [12] 0.005 | [13] 0.071 | [14] -0.065 | [15] -0.027 | [16] -0.072

GGT1 (UniProt P19440)
inactive: erlotinib -0.003 | [1] 0.007 | [2] -0.021 | [3] 0.029 | [4] -0.038 | [5] -0.002 | [6] -0.022 | [7] -0.024 | [8] -0.021 | IRAK-1-4 Inhibitor I -0.025 | ibrutinib 0.019 | [9] -0.011 | ralimetinib 0.048 | [10] 0.007 | [11] -0.044 | [12] -0.005 | [13] 0.004 | [14] -0.024 | [15] 0.002 | [16] 0.041

GID8 (UniProt Q9NWU2)
inactive: erlotinib 0.008 | [1] 0.04 | [2] 0.038 | [3] 0.024 | [4] -0.02 | [5] 0 | [6] 0.017 | [7] 0.033 | [8] 0.07 | IRAK-1-4 Inhibitor I -0.011 | ibrutinib 0.12 | [9] -0.043 | ralimetinib -0.019 | [10] -0.043 | [11] 0.023 | [12] -0.046 | [13] -0.011 | [14] 0.032 | [15] 0.034 | [16] -0.013

GLOD4 isoform 2 (UniProt Q9HC38)
inactive: erlotinib -0.005 | [1] 0.02 | [2] -0.005 | [3] -0.007 | [4] 0.006 | [5] 0.005 | [6] -0.007 | [7] 0.004 | [8] 0 | IRAK-1-4 Inhibitor I -0.018 | ibrutinib -0.009 | [9] 0 | ralimetinib -0.028 | [10] 0.024 | [11] -0.018 | [12] -0.037 | [13] 0.028 | [14] -0.018 | [15] -0.004 | [16] 0.006

2 records drawn at random from the list so far:
GPS2 (UniProt Q13227)
inactive: erlotinib -0.003 | [1] 0.002 | [2] 0.105 | [3] 0.078 | [4] 0.096 | [5] -0.042 | [6] 0.019 | [7] 0.022 | [8] 0.038 | IRAK-1-4 Inhibitor I 0.022 | ibrutinib 0.005 | [9] 0.011 | ralimetinib 0.032 | [10] 0.044 | [11] -0.002 | [12] 0.005 | [13] 0.071 | [14] -0.065 | [15] -0.027 | [16] -0.072

GID8 (UniProt Q9NWU2)
inactive: erlotinib 0.008 | [1] 0.04 | [2] 0.038 | [3] 0.024 | [4] -0.02 | [5] 0 | [6] 0.017 | [7] 0.033 | [8] 0.07 | IRAK-1-4 Inhibitor I -0.011 | ibrutinib 0.12 | [9] -0.043 | ralimetinib -0.019 | [10] -0.043 | [11] 0.023 | [12] -0.046 | [13] -0.011 | [14] 0.032 | [15] 0.034 | [16] -0.013

(listing goes on)

GGNBP2 (UniProt Q9H3C7)
inactive: erlotinib -0.012 | [1] -0.01 | [2] 0.074 | [3] -0.045 | [4] -0.102 | [5] 0.004 | [6] -0.006 | [7] -0.011 | [8] 0.06 | IRAK-1-4 Inhibitor I 0.006 | ibrutinib -0.011 | [9] -0.01 | ralimetinib -0.002 | [10] -0.069 | [11] 0.027 | [12] 0.023 | [13] -0.029 | [14] 0.026 | [15] 0.044 | [16] 0.022

GLUD1 (UniProt P00367)
inactive: erlotinib -0.016 | [1] 0.011 | [2] -0.018 | [3] -0.007 | [4] -0.029 | [5] -0.031 | [6] -0.006 | [7] -0.004 | [8] 0.014 | IRAK-1-4 Inhibitor I 0.024 | ibrutinib -0.017 | [9] 0.063 | ralimetinib -0.002 | [10] -0.009 | [11] -0.02 | [12] -0.02 | [13] 0.019 | [14] 0.027 | [15] -0.018 | [16] -0.006

GM2A (UniProt P17900)
inactive: erlotinib 0.052 | [1] 0.11 | [2] -0.022 | [3] -0.04 | [4] 0.166 | [5] 0.021 | [6] -0.036 | [7] -0.012 | [8] 0 | IRAK-1-4 Inhibitor I -0.054 | ibrutinib 0.04 | [9] -0.061 | ralimetinib -0.06 | [10] 0.02 | [11] -0.031 | [12] 0.045 | [13] 0.051 | [14] 0.045 | [15] -0.054 | [16] -0.018

GNAI2 (UniProt P04899)
inactive: erlotinib 0.014 | [1] 0.025 | [2] -0.031 | [3] -0.006 | [4] -0.006 | [5] 0.008 | [6] 0.031 | [7] -0.021 | [8] 0.044 | IRAK-1-4 Inhibitor I 0.001 | ibrutinib 0.004 | [9] -0.012 | ralimetinib 0.017 | [10] -0.035 | [11] -0.023 | [12] -0.005 | [13] 0.006 | [14] 0.044 | [15] -0.022 | [16] 0.001

GOLGA5 (UniProt Q8TBA6)
inactive: erlotinib 0.008 | [1] -0.004 | [2] 0.046 | [3] 0.013 | [4] -0.005 | [5] -0.031 | [6] -0.104 | [7] -0.022 | [8] -0.027 | IRAK-1-4 Inhibitor I 0.015 | ibrutinib 0.002 | [9] 0.03 | ralimetinib -0.034 | [10] -0.006 | [11] -0.049 | [12] -0.012 | [13] 0.002 | [14] 0.003 | [15] 0.032 | [16] -0.018

GHDC (UniProt Q8N2G8)
inactive: erlotinib 0.008 | [1] 0.001 | [2] -0.107 | [3] -0.053 | [4] -0.033 | [5] 0.019 | [6] -0.053 | [7] -0.064 | [8] 0.206 | IRAK-1-4 Inhibitor I -0.012 | ibrutinib 0.073 | [9] 0.022 | ralimetinib 0.023 | [10] 0.067 | [11] 0.058 | [12] 0.035 | [13] 0.07 | [14] 0.011 | [15] 0.014 | [16] 0.034
